Data taken from the supplement of paper PMC7666118.
The list shows a part of the results.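 Rule for the calls: active = dose-dependent thermal stabilisation significant by F-test of dose-response against flat model at 10% FDR; inactive = not significant.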

The chains behind the UniProt entries cited, without tags or fusion partners. Where a name states a change or a piece, a line headed by the entry shows the natural chain unless it says otherwise.
UniProt P48735: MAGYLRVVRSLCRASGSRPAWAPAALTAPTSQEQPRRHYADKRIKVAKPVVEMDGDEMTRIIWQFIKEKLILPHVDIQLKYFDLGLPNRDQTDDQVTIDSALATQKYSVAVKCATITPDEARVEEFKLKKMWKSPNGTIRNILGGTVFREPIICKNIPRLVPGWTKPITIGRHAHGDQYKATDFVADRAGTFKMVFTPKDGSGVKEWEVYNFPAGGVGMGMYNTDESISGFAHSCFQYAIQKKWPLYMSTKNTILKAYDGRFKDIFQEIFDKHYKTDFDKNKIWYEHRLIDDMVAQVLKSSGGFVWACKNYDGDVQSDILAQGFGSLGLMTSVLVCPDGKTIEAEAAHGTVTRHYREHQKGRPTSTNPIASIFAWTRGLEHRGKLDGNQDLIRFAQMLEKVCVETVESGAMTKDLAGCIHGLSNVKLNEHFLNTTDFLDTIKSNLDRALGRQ
UniProt O94829: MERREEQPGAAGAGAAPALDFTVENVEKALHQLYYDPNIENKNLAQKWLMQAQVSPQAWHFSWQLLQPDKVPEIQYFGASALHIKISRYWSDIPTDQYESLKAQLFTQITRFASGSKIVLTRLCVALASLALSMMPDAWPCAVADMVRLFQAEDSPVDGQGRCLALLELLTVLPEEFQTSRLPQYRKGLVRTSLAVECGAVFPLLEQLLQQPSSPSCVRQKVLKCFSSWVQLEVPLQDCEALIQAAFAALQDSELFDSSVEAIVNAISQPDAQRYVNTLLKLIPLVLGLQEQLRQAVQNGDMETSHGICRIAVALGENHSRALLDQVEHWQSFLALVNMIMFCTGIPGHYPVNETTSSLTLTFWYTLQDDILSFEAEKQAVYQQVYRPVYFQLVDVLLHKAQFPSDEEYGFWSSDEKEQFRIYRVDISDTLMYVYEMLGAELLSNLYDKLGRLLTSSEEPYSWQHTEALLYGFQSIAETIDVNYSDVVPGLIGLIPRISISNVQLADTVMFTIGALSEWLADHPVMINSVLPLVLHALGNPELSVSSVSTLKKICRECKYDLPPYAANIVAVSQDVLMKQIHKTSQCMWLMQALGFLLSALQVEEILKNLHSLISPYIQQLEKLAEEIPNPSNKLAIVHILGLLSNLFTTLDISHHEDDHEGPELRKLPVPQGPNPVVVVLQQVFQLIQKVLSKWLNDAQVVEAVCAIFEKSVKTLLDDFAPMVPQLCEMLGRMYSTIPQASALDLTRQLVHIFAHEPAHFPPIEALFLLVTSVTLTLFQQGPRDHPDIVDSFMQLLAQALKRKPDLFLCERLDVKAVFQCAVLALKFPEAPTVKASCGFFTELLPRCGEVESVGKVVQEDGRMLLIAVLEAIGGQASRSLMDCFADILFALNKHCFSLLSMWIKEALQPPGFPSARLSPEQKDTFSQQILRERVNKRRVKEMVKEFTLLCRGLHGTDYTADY
UniProt P14316: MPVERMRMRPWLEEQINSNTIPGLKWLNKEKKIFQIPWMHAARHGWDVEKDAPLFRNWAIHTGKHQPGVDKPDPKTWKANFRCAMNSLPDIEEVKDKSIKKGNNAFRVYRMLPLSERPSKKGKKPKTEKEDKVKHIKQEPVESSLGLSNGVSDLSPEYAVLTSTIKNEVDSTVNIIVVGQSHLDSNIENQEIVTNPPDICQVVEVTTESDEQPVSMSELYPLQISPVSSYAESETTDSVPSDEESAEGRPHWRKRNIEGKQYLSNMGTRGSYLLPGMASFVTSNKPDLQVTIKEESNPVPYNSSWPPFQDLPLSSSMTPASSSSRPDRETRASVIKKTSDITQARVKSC
UniProt Q96GY3: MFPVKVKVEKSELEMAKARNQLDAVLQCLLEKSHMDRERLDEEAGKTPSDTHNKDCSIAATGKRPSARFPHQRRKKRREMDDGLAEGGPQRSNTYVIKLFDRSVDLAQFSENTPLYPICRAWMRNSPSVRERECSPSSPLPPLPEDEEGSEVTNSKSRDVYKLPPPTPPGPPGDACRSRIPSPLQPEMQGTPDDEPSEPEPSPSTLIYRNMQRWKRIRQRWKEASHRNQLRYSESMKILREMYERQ
UniProt Q12906, whole entry: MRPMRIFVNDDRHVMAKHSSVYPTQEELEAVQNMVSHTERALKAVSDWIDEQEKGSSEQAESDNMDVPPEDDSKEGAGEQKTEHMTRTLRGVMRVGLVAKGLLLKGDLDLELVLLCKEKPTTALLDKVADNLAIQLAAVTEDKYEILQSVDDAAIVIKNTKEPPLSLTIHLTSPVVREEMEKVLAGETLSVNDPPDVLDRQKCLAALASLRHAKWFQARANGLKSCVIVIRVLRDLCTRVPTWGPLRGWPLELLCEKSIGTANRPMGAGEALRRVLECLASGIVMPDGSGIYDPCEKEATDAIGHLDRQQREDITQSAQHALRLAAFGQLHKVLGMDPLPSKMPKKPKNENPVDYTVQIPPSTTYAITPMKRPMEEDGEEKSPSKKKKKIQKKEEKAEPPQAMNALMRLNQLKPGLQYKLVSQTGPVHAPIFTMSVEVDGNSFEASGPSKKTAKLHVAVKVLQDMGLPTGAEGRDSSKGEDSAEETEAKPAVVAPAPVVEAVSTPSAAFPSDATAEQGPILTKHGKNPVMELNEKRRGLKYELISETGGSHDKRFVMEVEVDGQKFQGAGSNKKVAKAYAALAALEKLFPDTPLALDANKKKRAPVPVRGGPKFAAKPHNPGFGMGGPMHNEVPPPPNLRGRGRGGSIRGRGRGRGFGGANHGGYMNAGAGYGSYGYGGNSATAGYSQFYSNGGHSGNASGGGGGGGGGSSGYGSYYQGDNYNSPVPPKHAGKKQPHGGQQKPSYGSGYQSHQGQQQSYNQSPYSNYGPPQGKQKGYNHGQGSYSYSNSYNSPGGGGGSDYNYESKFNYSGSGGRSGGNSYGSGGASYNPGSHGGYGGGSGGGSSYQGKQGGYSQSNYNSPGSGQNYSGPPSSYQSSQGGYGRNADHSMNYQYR
UniProt Q00613: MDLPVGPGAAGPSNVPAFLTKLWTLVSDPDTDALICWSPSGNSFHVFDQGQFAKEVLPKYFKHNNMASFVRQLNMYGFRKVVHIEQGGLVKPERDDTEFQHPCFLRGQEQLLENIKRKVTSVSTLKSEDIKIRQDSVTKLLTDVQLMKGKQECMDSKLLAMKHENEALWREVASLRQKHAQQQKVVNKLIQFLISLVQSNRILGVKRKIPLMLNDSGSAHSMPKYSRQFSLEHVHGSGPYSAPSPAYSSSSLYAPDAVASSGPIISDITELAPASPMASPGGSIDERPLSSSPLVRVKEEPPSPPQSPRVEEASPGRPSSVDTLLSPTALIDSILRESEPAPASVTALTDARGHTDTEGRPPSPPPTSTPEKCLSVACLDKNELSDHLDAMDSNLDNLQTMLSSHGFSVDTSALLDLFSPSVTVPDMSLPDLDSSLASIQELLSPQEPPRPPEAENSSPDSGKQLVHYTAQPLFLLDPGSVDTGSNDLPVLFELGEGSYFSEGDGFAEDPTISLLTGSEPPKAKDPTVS
UniProt Q9H008: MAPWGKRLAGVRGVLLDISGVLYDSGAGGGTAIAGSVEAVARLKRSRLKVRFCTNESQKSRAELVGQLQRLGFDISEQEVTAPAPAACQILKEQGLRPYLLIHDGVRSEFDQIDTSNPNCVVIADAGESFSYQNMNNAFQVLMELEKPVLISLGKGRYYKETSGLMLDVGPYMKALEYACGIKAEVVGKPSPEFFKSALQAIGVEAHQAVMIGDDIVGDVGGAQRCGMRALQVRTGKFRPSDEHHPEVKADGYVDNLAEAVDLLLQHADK
UniProt Q96BZ8: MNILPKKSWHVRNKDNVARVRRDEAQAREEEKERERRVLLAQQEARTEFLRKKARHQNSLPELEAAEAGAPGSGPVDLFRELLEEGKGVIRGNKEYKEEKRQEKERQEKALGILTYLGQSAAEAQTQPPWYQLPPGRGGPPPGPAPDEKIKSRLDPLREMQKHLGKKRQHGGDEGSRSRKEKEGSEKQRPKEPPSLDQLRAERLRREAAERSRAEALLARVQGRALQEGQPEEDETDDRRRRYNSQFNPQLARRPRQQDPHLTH
UniProt P11717, whole entry: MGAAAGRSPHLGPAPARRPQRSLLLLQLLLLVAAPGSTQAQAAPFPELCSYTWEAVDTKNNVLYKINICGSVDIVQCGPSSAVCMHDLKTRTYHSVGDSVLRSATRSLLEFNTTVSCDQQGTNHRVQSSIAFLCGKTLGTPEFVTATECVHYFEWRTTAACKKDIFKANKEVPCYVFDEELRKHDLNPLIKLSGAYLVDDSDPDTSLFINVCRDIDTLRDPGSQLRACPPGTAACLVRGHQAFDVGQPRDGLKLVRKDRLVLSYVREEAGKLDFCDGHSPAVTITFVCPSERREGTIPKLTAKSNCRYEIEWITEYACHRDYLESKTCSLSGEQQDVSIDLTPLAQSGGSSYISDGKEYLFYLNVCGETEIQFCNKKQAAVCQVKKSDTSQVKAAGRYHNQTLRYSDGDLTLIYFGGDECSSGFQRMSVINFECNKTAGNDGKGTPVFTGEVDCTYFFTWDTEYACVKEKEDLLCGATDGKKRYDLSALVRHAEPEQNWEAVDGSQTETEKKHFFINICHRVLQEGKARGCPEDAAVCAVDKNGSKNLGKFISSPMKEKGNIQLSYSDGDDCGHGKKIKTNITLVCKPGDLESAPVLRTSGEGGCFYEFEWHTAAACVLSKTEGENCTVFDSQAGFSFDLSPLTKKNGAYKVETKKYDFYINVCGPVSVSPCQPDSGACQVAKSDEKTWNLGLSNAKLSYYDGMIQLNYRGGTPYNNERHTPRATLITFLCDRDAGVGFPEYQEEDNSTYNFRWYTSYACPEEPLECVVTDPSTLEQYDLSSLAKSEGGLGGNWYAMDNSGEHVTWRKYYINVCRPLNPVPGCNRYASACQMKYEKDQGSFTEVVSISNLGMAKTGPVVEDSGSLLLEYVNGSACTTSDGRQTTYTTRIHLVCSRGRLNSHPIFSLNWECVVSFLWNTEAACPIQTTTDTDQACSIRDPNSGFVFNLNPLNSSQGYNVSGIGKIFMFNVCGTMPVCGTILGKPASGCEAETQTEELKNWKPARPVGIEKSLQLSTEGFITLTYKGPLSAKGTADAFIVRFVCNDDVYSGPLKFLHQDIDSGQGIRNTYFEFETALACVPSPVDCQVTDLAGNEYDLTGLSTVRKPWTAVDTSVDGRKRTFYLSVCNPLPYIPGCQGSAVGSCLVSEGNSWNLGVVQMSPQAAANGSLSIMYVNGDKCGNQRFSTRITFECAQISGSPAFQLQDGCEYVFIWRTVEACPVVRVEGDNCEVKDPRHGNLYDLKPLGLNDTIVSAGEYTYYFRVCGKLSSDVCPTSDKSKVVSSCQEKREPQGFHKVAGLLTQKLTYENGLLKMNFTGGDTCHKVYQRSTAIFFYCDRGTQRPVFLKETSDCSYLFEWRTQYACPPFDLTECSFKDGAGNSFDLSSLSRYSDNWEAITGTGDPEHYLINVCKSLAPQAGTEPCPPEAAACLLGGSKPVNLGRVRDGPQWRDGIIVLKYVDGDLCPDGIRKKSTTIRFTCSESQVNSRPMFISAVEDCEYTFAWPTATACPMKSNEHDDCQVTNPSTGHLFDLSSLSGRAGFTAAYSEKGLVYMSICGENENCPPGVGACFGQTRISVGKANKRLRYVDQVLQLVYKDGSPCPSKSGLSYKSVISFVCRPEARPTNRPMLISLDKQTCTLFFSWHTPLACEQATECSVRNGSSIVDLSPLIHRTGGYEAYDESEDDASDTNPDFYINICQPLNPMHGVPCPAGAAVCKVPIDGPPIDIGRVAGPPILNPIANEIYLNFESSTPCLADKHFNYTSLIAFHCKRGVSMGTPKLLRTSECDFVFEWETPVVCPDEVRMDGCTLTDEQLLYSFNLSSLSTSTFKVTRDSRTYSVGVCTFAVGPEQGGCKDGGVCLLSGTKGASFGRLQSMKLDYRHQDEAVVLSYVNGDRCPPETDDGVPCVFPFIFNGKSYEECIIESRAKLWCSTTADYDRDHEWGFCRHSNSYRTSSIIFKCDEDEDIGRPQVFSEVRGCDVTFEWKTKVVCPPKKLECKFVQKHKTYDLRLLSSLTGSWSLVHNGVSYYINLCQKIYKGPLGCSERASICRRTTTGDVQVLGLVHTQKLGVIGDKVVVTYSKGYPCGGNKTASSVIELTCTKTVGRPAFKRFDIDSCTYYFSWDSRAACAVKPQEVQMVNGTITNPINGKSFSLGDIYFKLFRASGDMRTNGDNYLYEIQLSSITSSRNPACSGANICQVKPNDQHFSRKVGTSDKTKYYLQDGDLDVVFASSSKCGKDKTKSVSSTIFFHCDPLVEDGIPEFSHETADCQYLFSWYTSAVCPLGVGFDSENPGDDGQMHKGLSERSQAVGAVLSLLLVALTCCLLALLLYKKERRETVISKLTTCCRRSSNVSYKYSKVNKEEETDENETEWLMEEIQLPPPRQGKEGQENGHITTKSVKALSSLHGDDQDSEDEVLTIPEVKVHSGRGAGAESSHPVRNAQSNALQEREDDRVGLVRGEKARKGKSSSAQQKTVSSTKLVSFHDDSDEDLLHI

Compound: Nc1nc2c(ncn2[C@@H]2O[C@H](COP(=O)(O)OP(=O)(O)OP(=O)(O)O)[C@@H](O)[C@H]2O)c(=O)[nH]1
Assay: dose-dependent thermal stabilisation call (2D-TPP, DLPTP, 10% FDR) (binary (1 = stabilised)); higher = stabilised by the compound
Details: system: Jurkat gel-filtered lysate; concentration range 1-500 µM

Row | Target | dose-dependent thermal stabilisation call
1 | KIAA1551 (UniProt Q9HCM1) | inactive: 0
2 | ISG20 (UniProt Q96AZ6) | inactive: 0
3 | IGFBP2 (UniProt P18065) | inactive: 0
4 | ISY1 (UniProt Q9ULR0) | inactive: 0
5 | IDH2 (UniProt P48735) | inactive: 0
6 | LDHB (UniProt P07195) | inactive: 0
7 | IRAK4 (UniProt Q9NWZ3) | inactive: 0
8 | KIAA1429 (UniProt Q69YN4) | inactive: 0
9 | KATNA1 (UniProt O75449) | inactive: 0
10 | LMTK2 (UniProt Q8IWU2) | inactive: 0
11 | LGMN (UniProt Q99538) | active: 1
12 | IPO4 (UniProt Q8TEX9) | inactive: 0
13 | IPO13 (UniProt O94829) | active: 1
14 | HSP90AB1 (UniProt P08238) | inactive: 0
15 | LPIN1 (UniProt Q14693) | inactive: 0
16 | IKZF1 (UniProt Q13422) | inactive: 0
17 | IRF2 (UniProt P14316) | inactive: 0
18 | LIN37 (UniProt Q96GY3) | inactive: 0

Taken from above.
Entry for LGMN (UniProt Q99538) under dose-dependent thermal stabilisation call: active: 1
Entry for HSP90AB1 (UniProt P08238) under dose-dependent thermal stabilisation call: inactive: 0

(next part)

Row | Target | dose-dependent thermal stabilisation call
19 | ILF3 (UniProt Q12906) | active: 1
20 | LMO3 (UniProt Q8TAP4) | inactive: 0
21 | LEMD3 (UniProt Q9Y2U8) | inactive: 0
22 | LARP4 (UniProt Q71RC2) | inactive: 0
23 | HSF1 (UniProt Q00613) | inactive: 0
24 | IKBKAP (UniProt O95163) | inactive: 0
25 | LHPP (UniProt Q9H008) | inactive: 0
26 | LENG1 (UniProt Q96BZ8) | inactive: 0
27 | LASP1 (UniProt Q14847) | inactive: 0
28 | ING1 (UniProt Q9UK53) | inactive: 0
29 | KIF21B (UniProt O75037) | inactive: 0
30 | HPF1 (UniProt Q9NWY4) | active: 1
31 | KMT2C (UniProt Q8NEZ4) | inactive: 0
32 | IGF2R (UniProt P11717) | inactive: 0
33 | IVNS1ABP (UniProt Q9Y6Y0) | inactive: 0
34 | LCP2 (UniProt Q13094) | inactive: 0
35 | L3HYPDH (UniProt Q96EM0) | inactive: 0
36 | IDH3A (UniProt P50213) | active: 1
